Consider two substances from article PMC12486161.

Protein sequences, listed by entry. Tags and fused reporters are not part of them. Lines headed by an entry give the natural chain unless they say otherwise; changes in a name come on top.
UniProt Q99KQ4: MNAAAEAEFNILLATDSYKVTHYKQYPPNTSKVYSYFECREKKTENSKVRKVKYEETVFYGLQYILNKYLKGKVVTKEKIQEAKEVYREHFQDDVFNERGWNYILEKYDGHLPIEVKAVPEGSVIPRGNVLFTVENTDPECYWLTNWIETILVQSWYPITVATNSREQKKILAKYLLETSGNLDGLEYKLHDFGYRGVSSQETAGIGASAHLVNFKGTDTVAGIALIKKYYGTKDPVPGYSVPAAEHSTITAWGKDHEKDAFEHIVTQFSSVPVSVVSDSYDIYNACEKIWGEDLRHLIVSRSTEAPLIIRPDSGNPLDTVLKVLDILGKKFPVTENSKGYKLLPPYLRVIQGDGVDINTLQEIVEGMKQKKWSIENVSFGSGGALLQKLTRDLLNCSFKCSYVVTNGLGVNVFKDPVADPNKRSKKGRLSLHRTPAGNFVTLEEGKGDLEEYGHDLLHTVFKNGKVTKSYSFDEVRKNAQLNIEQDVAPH
UniProt Q9WVK8: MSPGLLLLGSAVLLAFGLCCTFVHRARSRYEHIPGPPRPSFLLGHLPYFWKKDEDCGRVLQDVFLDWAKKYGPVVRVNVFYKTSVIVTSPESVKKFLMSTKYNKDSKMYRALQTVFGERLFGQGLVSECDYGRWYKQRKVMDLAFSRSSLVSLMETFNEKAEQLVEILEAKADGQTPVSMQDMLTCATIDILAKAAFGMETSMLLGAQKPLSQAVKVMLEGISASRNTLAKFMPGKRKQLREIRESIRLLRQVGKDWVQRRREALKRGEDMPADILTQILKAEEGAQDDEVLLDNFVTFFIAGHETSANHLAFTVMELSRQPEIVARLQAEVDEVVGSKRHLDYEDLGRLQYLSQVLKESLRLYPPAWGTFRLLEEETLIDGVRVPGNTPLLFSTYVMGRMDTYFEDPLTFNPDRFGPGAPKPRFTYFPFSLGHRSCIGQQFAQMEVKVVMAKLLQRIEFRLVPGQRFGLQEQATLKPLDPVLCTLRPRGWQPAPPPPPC
UniProt Q99MQ3: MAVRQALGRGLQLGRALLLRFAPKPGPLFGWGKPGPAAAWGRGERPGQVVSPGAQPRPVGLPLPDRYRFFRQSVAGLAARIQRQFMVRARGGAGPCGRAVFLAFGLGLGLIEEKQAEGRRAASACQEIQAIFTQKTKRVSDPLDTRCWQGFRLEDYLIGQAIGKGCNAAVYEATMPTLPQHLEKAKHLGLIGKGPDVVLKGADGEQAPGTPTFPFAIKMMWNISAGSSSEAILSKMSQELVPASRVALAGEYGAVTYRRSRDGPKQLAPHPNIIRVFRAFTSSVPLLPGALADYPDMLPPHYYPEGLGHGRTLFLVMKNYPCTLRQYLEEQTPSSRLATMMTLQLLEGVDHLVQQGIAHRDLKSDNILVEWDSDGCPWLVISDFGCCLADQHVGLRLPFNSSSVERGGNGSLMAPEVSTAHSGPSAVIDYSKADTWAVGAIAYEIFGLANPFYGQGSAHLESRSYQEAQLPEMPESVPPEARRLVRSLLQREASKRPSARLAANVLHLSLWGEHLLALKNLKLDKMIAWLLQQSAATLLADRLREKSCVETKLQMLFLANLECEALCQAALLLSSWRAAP

Results are given in words; binding and its absence hold for the method and conditions named. Binding seen in cells or lysates may run through a third protein. Some binding calls cover weakened binding; strength is not graded here.

For experiment [1], the target named is Nicotinamide phosphoribosyltransferase (NAMPT) in HT22 cells and primary mouse neurons (mouse (endogenous in HT22 and primary C57BL/6 neurons)) (UniProt Q99KQ4). Description: co-IP; HT22 cells, untreated or treated with Abeta25-35 (20 uM) and cholesterol complex (50 ug/ml cholesterol), with or without Alisol A (10 uM); lysate precipitated with anti-NAMPT antibody and protein A/G magnetic beads, IgG as control; blots with anti-SIRT1, anti-CYP46A1, anti-PINK1.

For experiment [2] the target is unchanged. Description: co-IP; primary mouse neurons, untreated or treated with ox-LDL (70 ug/ml), with or without Alisol A; lysate precipitated with anti-NAMPT antibody and protein A/G magnetic beads, IgG as control; blots with anti-SIRT1, anti-CYP46A1, anti-PINK1.

For the substance “Cholesterol 24-hydroxylase (CYP46A1) (from UniProt Q9WVK8 1-500) (enzyme)”, the binding entry in experiment [1] and in experiment [2] was “binds” throughout.
On to “PTEN-induced kinase 1 (PINK1) (from UniProt Q99MQ3 78-580) (enzyme)”, for which the binding entry in experiment [1] and in experiment [2] was “binds” each time.
